Measured data: PubChem BioAssay AID720505 (Drosophila RNAi Screening Center, 2013)

Aim: 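Knock-downs that reduce calcium influx once internal stores are emptied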 (primary screen)
Cell system: Drosophila S2R+ cells
Reagent: long dsRNA against Drosophila genes
Challenge: thapsigargin (2 µM) in calcium-free buffer to empty internal stores, then 2 mM calcium added back
Detection: 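Stores emptied by 2 µM thapsigargin without calcium, then 2 mM calcium re-added; fluo-4 fluorescence followed by FLIPR in 384-well plates, per-well averaged endpoint, raw; two screen passes, some wells retested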
Reading the numbers: calcium signal and retest calcium signal: higher = more calcium entry after store depletion
Active means: 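Knock-downs counted as hits when calcium entry dropped relative to STIM1 positive and Rho1 negative controls present on each plate; roughly 1500 genes called, with reductions of differing size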
Calls: active = called as lowering calcium entry; inactive = not called
The deposit covers about 20,000 reagents; this is an unselected part of those that have a named target and a result. In the full data, about 2,100 (10%) are marked active. 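Raw plate signals without normalisation; calls rest on control-based scores that were not deposited; replicate 2 separates called from uncalled poorly.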 A plus sign joins genes that one reagent is predicted to hit. The record does not give: the amount of reagent, the time to read-out.

| gene knocked down | DRSC id | calcium signal, replicate 1 | calcium signal, replicate 2 | retest calcium signal, replicate 1 | retest calcium signal, replicate 2 | activity call |
| --- | --- | --- | --- | --- | --- | --- |
| mRpS26 (mitochondrial ribosomal protein S26) | DRSC10823 | 102 | 165 | – | – | inactive |
| danr (distal antenna-related) | DRSC14651 | 234 | 170 | – | – | inactive |
| CG6908 | DRSC16131 | 165 | 118 | – | – | inactive |
| plx (pollux) | DRSC12260 | 112 | 130 | – | – | inactive |
| plx (pollux) | DRSC12385 | 112 | 152 | 8653 | 173 | inactive |
| plx (pollux) | DRSC22683 | 89.7 | 169 | – | – | inactive |
| bin3 (bicoid-interacting protein 3) | DRSC04919 | 155 | 177 | – | – | inactive |
| CG4666 | DRSC18379 | 216 | 84 | – | – | inactive |
| CG12395 | DRSC19453 | 100 | 87.8 | – | – | inactive |
| CG32599 | DRSC19433 | 100 | 68.1 | – | – | inactive |
| Naglu (N-acetyl-alpha-glucosaminidase) | DRSC02267 | 137 | 287 | – | – | inactive |
| Obp50d (Odorant-binding protein 50d) | DRSC05483 | 75.9 | 101 | – | – | inactive |
| CG12948 | DRSC14576 | 165 | 76.3 | – | – | inactive |
| Con (Connectin) | DRSC08652 | 92.1 | 91.8 | – | – | inactive |
| Ak2 (Adenylate kinase 2) | DRSC04043 | 74.3 | 131 | – | – | inactive |
| CG3270 | DRSC04988 | 133 | 104 | – | – | inactive |
| inaF-B + inaF-D + inaF-C + 1 more | DRSC20342 | 117 | 103 | – | – | inactive |
| TTLL15 (Tubulin tyrosine ligase-like 15) | DRSC15543 | 151 | 89.5 | – | – | inactive |
| Ugt36A1 + CG15418 | DRSC00432 | 156 | 92.7 | – | – | inactive |
| CG34327 | DRSC19517 | 60.3 | 121 | – | – | active |
| CG34327 | DRSC22380 | 82.1 | 208 | – | – | inactive |
| CG10428 | DRSC02054 | 125 | 89.6 | – | – | inactive |
| CG11977 | DRSC14454 | 80 | 148 | – | – | inactive |
| CG31638 | DRSC02269 | 97.8 | 100 | – | – | inactive |
| CG31638 | DRSC03259 | 110 | 113 | – | – | inactive |
| Sgp (Sgroppino) | DRSC02195 | 79.6 | 84.5 | – | – | inactive |
| eIF3g1 (eukaryotic translation initiation factor 3 subunit g1) | DRSC18427 | 102 | 86.4 | – | – | inactive |
| Indy (I'm not dead yet) | DRSC10393 | 99.7 | 122 | – | – | inactive |
| CG9932 | DRSC03275 | 76 | 88.4 | – | – | active |
| CG43188 | DRSC05260 | 63.8 | 125 | – | – | inactive |
| Nrd1 (Nardilysin) | DRSC19830 | 136 | 120 | – | – | inactive |
| Sf3b5 (Splicing factor 3b subunit 5) | DRSC14460 | 26.5 | 102 | – | – | active |
| Hmgs (HMG Coenzyme A synthase) | DRSC06866 | 159 | 132 | – | – | inactive |
| uif (uninflatable) | DRSC00963 | 101 | 129 | – | – | inactive |
| uif (uninflatable) | DRSC03427 | 71.4 | 158 | – | – | active |
| CG42729 | DRSC10236 | 69.5 | 84.2 | – | – | active |
| dsb (debris buster) | DRSC08407 | 65 | 77.8 | – | – | inactive |
| dsb (debris buster) | DRSC08542 | 74.7 | 111 | – | – | inactive |
| CG32563 | DRSC19934 | 93.7 | 103 | – | – | inactive |
| Tango10 (Transport and Golgi organization 10) | DRSC19807 | 185 | 128 | – | – | inactive |
| CG3123 | DRSC00570 | 203 | 99.2 | – | – | inactive |
| slou (slouch) | DRSC17058 | 178 | 100 | – | – | inactive |
| Cp15 (Chorion protein 15) | DRSC11118 | 100 | 79.3 | – | – | inactive |
| mRpL54 (mitochondrial ribosomal protein L54) | DRSC04545 | 146 | 85 | – | – | inactive |
| fd19B (forkhead domain 19B) | DRSC20688 | 77 | 183 | 105 | 102 | active |
| CG13036 (retired record) | DRSC09916 | 97.7 | 150 | – | – | inactive |
| pio (piopio) | DRSC04386 | 207 | 112 | – | – | inactive |
| CG10053 | DRSC12502 | 112 | 141 | – | – | inactive |
| Coq7 + shf | DRSC18448 | 171 | 130 | – | – | inactive |
| mah (mahogany) | DRSC14645 | 175 | 131 | – | – | inactive |
| CG11686 | DRSC14350 | 113 | 156 | – | – | inactive |
| Sclp | DRSC19851 | 152 | 91 | – | – | inactive |
| CG16888 | DRSC02541 | 128 | 145 | – | – | inactive |
| CG15615 | DRSC06568 | 116 | 112 | – | – | inactive |
| CG42399 | DRSC00322 | 186 | 123 | – | – | inactive |
| CG42399 | DRSC00661 | 152 | 105 | – | – | inactive |
